In patent publication EP0226475A1, “Diphenoxyethyl amine derivatives, process for their preparation and pharmaceutical compositions containing them” (Albert ROLLAND S.A. Société dite, priority 1985, dated 1987):
For at least one compound, name, drawing or mass did not settle the structure.

Target: DA (Dopamine) uptake (Rattus norvegicus, UniProt P23977)
Test: Uptake "ex vivo" of DA
Type: in vivo
Conditions: dose not given
Excerpt: Activité sur les tests d'inhibition ou de recapture des principaux médiateurs adrénergiques.
Les résultats obtenus en comparaison avec ceux des antidépresseurs classiques sont rassemblés dans le tableau II: […]

## CNCC(Oc1ccccc1)Oc1ccccc1 [2,2-bis-phénoxy N-méthyl amino éthane, 2,2-bis phenoxy N-methylaminoethane]
  UPTAKE "EX VIVO" % d'inhibition DA: inactif
